Assay results published in patent US20160046678A1 (ZYNGENIA, published 2016).
Results are given in words; binding and its absence hold for the method and conditions named. Some results given as binding are weak or reduced against the parent protein; the word gives no strength.

T1: Angiopoietin-2 (Ang2) (human, UniProt O15123 19-496, biotin label in Examples 22-24)
T1 construct: also called rhAng2; recombinant Ang2
T1 sequence (looked up): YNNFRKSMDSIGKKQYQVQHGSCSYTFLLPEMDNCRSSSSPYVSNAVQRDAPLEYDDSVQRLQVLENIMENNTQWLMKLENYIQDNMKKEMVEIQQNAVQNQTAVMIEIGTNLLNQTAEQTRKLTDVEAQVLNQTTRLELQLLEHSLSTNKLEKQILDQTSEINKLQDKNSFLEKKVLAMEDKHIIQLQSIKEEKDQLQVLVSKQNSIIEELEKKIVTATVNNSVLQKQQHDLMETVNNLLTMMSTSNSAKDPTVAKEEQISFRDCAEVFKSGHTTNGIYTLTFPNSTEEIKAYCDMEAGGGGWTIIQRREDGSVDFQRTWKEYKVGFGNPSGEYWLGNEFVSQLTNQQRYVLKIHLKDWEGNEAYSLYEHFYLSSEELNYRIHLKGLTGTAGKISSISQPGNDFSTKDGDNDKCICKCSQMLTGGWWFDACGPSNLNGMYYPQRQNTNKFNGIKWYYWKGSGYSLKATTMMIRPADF

B1: ANG107 (peptide)
peptide: FCDFYDYHYVCF
B2: ANG83 (peptide)
peptide: ECDGWEYHYVCW
B3: ANG94 (peptide)
peptide: PCPYYFNRQHCV
B4: ANG87 (peptide)
peptide: WCDRGTYVMFCD
B5: ANG95 (peptide)
peptide: ICYVYGLEEWCI
B6: ANG119 (peptide)
peptide: ECYWYPNPHWCR
B7: ANG75 (peptide)
peptide: SCWWYPNPQWCY
B8: ANG98 (peptide)
peptide: HCPLWYDHYFCA
B9: ANG101 (peptide)
peptide: ACAWYPNPVECY
B10: ANG84 (peptide)
peptide: ECYWYPNPWFCY
B11: ANG71 (peptide)
peptide: DGSPCAWFPNPSFCY
B12: ANG72 (peptide)
peptide: VCPWWYDHWLCS
B13: ANG89 (peptide)
peptide: WCDYGTYVVQCE
B14: ANG82 (peptide)
peptide: NCWEYPNPAWCY
B15: ANG112 (peptide)
peptide: PCAWYPNPAECY
B16: ANG102 (peptide)
peptide: ECAIYPNPQWCY
B17: ANG79 (peptide)
peptide: DCAWFPNPAWCH
B18: ANG113 (peptide)
peptide: ECPFWYDHYMCM
B19: ANG121 (peptide)
peptide: HCPDWYNHQLCP
B20: ANG114 (peptide)
peptide: PCHWFPNPTECY
B21: ANG70 (peptide)
peptide: FCALFPYMFPCE
B22: ANG85 (peptide)
peptide: DCVDYPGWEYCV
B23: ANG128 (peptide)
peptide: GYRDCYFYPNPRHCYGSH
B24: ANG91 (peptide)
peptide: QCYWFPNPLECY
B25: ANG106 (peptide)
peptide: QCPWWYDHYWCN
B26: ANG120 (peptide)
peptide: HCYWHPSPNWCR
B27: ANG74 (peptide)
peptide: YCPLCQYHYGCF
B28: ANG110 (peptide)
peptide: ICPWWYDHYTCF
B29: ANG73 (peptide)
peptide: ECDGWEYHYFCW
B30: ANG118 (peptide)
peptide: SCYSYPNPAWCY
B31: ANG111 (peptide)
peptide: ACDWFQNPYVCW
B32: ANG76 (peptide)
peptide: ECYFLVNMEWCQ
B33: ANG77 (peptide)
peptide: TCWFWELEFFCI
B34: ANG86 (peptide)
peptide: ECYMLHACYDEGH
B35: ANG103 (peptide)
peptide: DCYYYPNPSWCW
B36: ANG109 (peptide)
peptide: MCPFWYDHELCV
B37: ANG88 (peptide)
peptide: TCPVWWDDYWCG
B38: ANG123 (peptide)
peptide: LGPVLLECYFYPNPQHCY
B39: ANG81 (peptide)
peptide: YCPQWYDHWLCT
B40: ANG78 (peptide)
peptide: KCYWFPNPIECY
B41: ANG80 (peptide)
peptide: HCPYWYDHELCH
B42: ANG104 (peptide)
peptide: DCYYFPNPQWCF
B43: ANG108 (peptide)
peptide: VCPYWWDHWLCL
B44: ANG116 (peptide)
peptide: ECYTFPNPQFCY
B45: ANG122 (peptide)
peptide: ACVWFPNPDWCY
B46: ANG90 (peptide)
peptide: HCYWHPSPSWCY
B47: ANG93 (peptide)
peptide: QCKWFPNPKECY
B48: ANG130 (peptide)
peptide: LVNDCFFFPNPPHCYVSS

These binders were tested against T1, Angiopoietin-2 (Ang2) (assay: Example 48, method not detailed).

binding, binds:
B1
B2
B3
B4
B5
B6
B7
B8
B9
B10
B11
B12
B13
B14
B15
B16
B17
B18
B19
B20
B21
B22
B23
B24
B25
B26
B27
B28
B29
B30
B31
B32
B33
B34
B35
B36
B37
B38
B39
B40
B41
B42
B43
B44
B45
B46
B47
B48
